Test results reported in patent US20060216231.

How the values were obtained:
[1] = biological target: PyRo1 / hnRNP-K, native Jurkat nuclear factor (Homo sapiens) (UniProt P61978); test: competition with a labelled probe; conditions: unrelated competitor; outcome not explicitly described in text; protein in an extract; single-stranded DNA
[2] = biological target: PyRo1 / hnRNP-K, native Jurkat nuclear factor (Homo sapiens) (UniProt P61978); test: pull-down; conditions: 3'-biotinylated n1 on streptavidin particles; captured protein identified as hnRNP-K by MALDI-TOF-MS; protein in an extract; label: 32P 5'; single-stranded DNA
[3] = biological target: GST (UniProt P08515); test: EMSA; conditions: GST-alone control; outcome implied; purified recombinant protein; protein details: GST alone from parent vector; label: 32P 5'; single-stranded DNA
[4] = biological target: PyRo1 / hnRNP-K, native Jurkat nuclear factor (Homo sapiens) (UniProt P61978); test: EMSA; conditions: all dT replaced by 5-bromo-2'-deoxyuridine (U = bromouracil); 3' biotin; protein in an extract; label: 32P, 3' biotin; single-stranded DNA; variant of CD43 PyRo SS

GAGTTAGCTCACTCATTAGG [NS-SS]
binding result [1]: no binding

GGGCCCACTTCCTTTCCCCTTG [CD43 PyRo SS]
binding result [2]: binds
binding result [3]: no binding

GGGCCCACUUCCUUUCCCCUUG [CD43 PyRo SSUB]
binding result [4]: binds

For some of these results: Where cells or extracts were used, other partners may take part. For some of these results: A negative result means that nothing was seen under these conditions. For some of these results: The exact form of at least one protein or probe is not confirmed.
